Experimental data: PubChem BioAssay AID504791 (Drosophila RNAi Screening Center, 2011)
Test: 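Factors in Argonaute-based small RNA production and activity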 (primary screen). Cells: Drosophila S2-derived reporter cells. Reagents: long dsRNA against Drosophila genes, about 150-250 ng dsRNA per well (siRNA assay); about 80-120 ng (miRNA assay). Duration: about 5 days (siRNA assay); about 4 days (miRNA assay). Conditions: copper sulfate induction of reporters: 25 µM (siRNA assay); 200 mM stated (miRNA assay), 1-2 days before reading. Detection: 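Per-well ratio of Renilla over firefly light, expressed relative to that plate's average ratio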. Call rule: 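a well was a first-pass pick when its plate-scaled ratio rose above 1.5 (siRNA assay) or 1.6 (miRNA assay), or dropped below 0.6; a gene counted only if two separate dsRNAs agreed on retest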.
The screen tested about 23,000 reagents; below is a random part of those with a known target gene and a result. Over the whole deposit, 199 (0.86%) are marked active. 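Plate-scaled ratios behind the calls are not deposited; printed light signals are raw; many rows marked increased or decreased are still called inactive.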 A number with no mark means an inactive call. Names joined by + are all predicted targets of the reagent. Not stated in the record: the direction of the score.

gene,DRSC id,stable siRNA reporter change,miRNA reporter change,"stable assay Renilla, run 1 (luminescence)","stable assay firefly, run 1 (luminescence)"
CG5056,DRSC02808,,,7635,2.99e5
CG1598,DRSC06598,,,5502,3.11e5
CG6961 + CG18259,DRSC19799,,,6278,4.29e5
CG6961 + CG18259,DRSC20019,,,7611,4.52e5
CG4945,DRSC06904,,,8930,3.18e5
row (relative of woc),DRSC07076,,,10125,6.00e5
row (relative of woc),DRSC07077,,,5936,3.35e5
"SdhA (Succinate dehydrogenase, subunit A (flavoprotein))",DRSC07547,,,8886,3.54e5
CG34228,DRSC05300,,,5636,3.92e5
ocm (over compensating males),DRSC04360,,,18016,1.20e6
Taf7 (TBP-associated factor 7),DRSC15445,,,5330,3.80e5
CG12645,DRSC17851,,,5596,4.32e5
TTLL12 (Tubulin tyrosine ligase-like 12),DRSC06555,,,6886,4.05e5
AttB (Attacin-B),DRSC06734,,,6691,3.76e5
eIF4E4 (eukaryotic translation initiation factor 4E4),DRSC09701,,,7990,5.41e5
CG7218,DRSC16216,,,9685,4.69e5
Gnmt (Glycine N-methyltransferase),DRSC15987,,,6908,4.10e5
CG9459,DRSC16496,,,6215,3.94e5
p53,DRSC17024,,,7912,3.36e5
Flad1 (Flavin adenine dinucleotide synthetase 1),DRSC19898,,,7302,4.07e5
Naa30B (N(alpha)-acetyltransferase 30 B),DRSC08245,,,6139,3.62e5
bor (belphegor),DRSC16915,,,7531,5.52e5
wda (will decrease acetylation),DRSC15579,,,4235,4.82e5
wda (will decrease acetylation),DRSC22351,,,8992,6.36e5
Sema5c (Semaphorin 5c),DRSC11279,,,4726,2.84e5
CG4020,DRSC18337,,,6143,3.23e5
how (held out wings),DRSC16966,,,5103,2.71e5

Continued (7 carried over from the part before).
gene,DRSC id,stable siRNA reporter change,miRNA reporter change,"stable assay Renilla, run 1 (luminescence)","stable assay firefly, run 1 (luminescence)"
Naa30B (N(alpha)-acetyltransferase 30 B),DRSC08245,,,6139,3.62e5
bor (belphegor),DRSC16915,,,7531,5.52e5
wda (will decrease acetylation),DRSC15579,,,4235,4.82e5
wda (will decrease acetylation),DRSC22351,,,8992,6.36e5
Sema5c (Semaphorin 5c),DRSC11279,,,4726,2.84e5
CG4020,DRSC18337,,,6143,3.23e5
how (held out wings),DRSC16966,,,5103,2.71e5
CG9135,DRSC03144,,,26416,3.90e5
Fer3HCH (Ferritin 3 heavy chain homologue),DRSC19892,,,6259,3.97e5
Mkp3 (Mitogen-activated protein kinase phosphatase 3),DRSC10084,,,10316,3.87e5
Mkp3 (Mitogen-activated protein kinase phosphatase 3),DRSC10085,,,7802,4.73e5
Enoph (Enolase-phosphatase),DRSC12201,,,7078,5.57e5
Acadvl (Acyl-CoA dehydrogenase very long chain),DRSC07022,,,8372,3.13e5
Atac3 (Ada2a-containing complex component 3),DRSC08579,,,6411,3.59e5
Dnali1 (Dynein axonemal light intermediate chain 1),DRSC16158,,,9223,5.06e5
CG8924,DRSC20122,,,6683,3.39e5
CG8924,DRSC23027,,,5460,3.76e5
Lcch3 (Ligand-gated chloride channel homolog 3),DRSC20257,,,7848,6.08e5
Lcch3 (Ligand-gated chloride channel homolog 3),DRSC22175,,,8302,4.43e5
CG14759,DRSC06494,,,7787,4.73e5
CG1582,DRSC19732,,,7467,4.67e5
RpL36 (Ribosomal protein L36),DRSC18708,,,7387,3.87e5
NimB2 (Nimrod B2),DRSC22645,,,4455,4.06e5
CG44001 + CG33995,DRSC00853,,,6063,3.79e5
CG44001 + CG33995,DRSC02898,,,13079,4.63e5
CG11562,DRSC00316,,,7164,3.72e5
Cox11 (Cytochrome c oxidase copper chaperone COX11),DRSC22692,,,4875,4.94e5
CG15602,DRSC19671,,,4283,3.53e5
Mst33A,DRSC03371,,,6856,3.92e5
CG6928,DRSC10749,,,6899,3.35e5
CG14160,DRSC10161,,,6830,3.70e5
CG9372,DRSC11068,,,7031,3.66e5
ple (pale),DRSC11383,,,7018,4.28e5
CG31816,DRSC01547,,,6082,5.06e5
Snx6 (Sorting nexin 6),DRSC03081,,,28441,4.04e5
sphinx2,DRSC22188,,,9779,5.75e5
CG1116,DRSC12166,,,6483,3.94e5
Elba1 (Early boundary activity 1),DRSC00276,,,6967,3.73e5
CG17207,DRSC15198,,,6967,3.11e5
Cyp6v1 (Cytochrome P450 6v1),DRSC20565,,,6043,3.72e5
CG31454,DRSC14365,,,5343,4.04e5
CG31454,DRSC22801,,,3211,3.00e5
tal-1A + tal-2A + tal-AA + 1 more,DRSC12992,,,4743,3.81e5
CG7173,DRSC11812,,reporter ratio lowered past the hit cutoff,6007,2.14e5
CG7173,DRSC23252,,,4144,3.39e5
CG4594,DRSC02762,,,7947,8.83e5
dmpd (dampened),DRSC06092,,,7575,4.60e5
Cortactin,DRSC16612,,,7699,2.78e5
Ir94h (Ionotropic receptor 94h),DRSC15232,,,6132,2.47e5
mRpL3 (mitochondrial ribosomal protein L3),DRSC20100,,,4371,4.42e5
Arp5 (Actin-related protein 5),DRSC16350,,,9539,4.05e5
VhaM9.7-c (Vacuolar H[+] ATPase M9.7 subunit c),DRSC08204,,,7372,3.78e5
Rheb (Ras homolog enriched in brain),DRSC12148,,,6200,4.17e5
CG30414,DRSC04372,,,6690,4.18e5
Gycalpha99B (Guanylyl cyclase alpha-subunit at 99B),DRSC16690,,,7627,4.54e5
CG1523,DRSC15033,,,7931,4.20e5
CG14589,DRSC04866,,,6867,4.47e5
CG9222,DRSC03158,reporter ratio lowered past the hit cutoff,,3832,4.45e5
rl (rolled),DRSC07833,,,5551,3.77e5
rl (rolled),DRSC20742,,,3947,2.40e5
rl (rolled),DRSC21814,,,7687,3.85e5
"ScsbetaA (Succinyl-coenzyme A synthetase beta subunit, ADP-forming)",DRSC14446,,,8555,4.39e5
GluRIIA (Glutamate receptor IIA),DRSC03334,,,7894,3.27e5
